Reference: PubChem BioAssay AID540276 (National Center for Advancing Translational Sciences (NCATS), 2011)
About 5,400 (1.8%) of roughly 300,000 compounds were called active. Inconclusive results, whose numbers are uncertain, are shown with a selection of clear calls. Calls come from the whole dose curve; tested in HEK293 cells. Where the call is inconclusive, the potency comes from a doubtful curve fit.

Assay: qHTS for inhibitors of binding or entry into cells for Marburg Virus
Settings: Marburg virus pseudotyped entry inhibition, cell reporter; series mostly up to 37.8 µM
Potency is the fitted concentration of half-maximal effect.

Compound | Potency
O=C(N/N=C/c1cccc(OC(=O)N2CCOCC2)c1)c1cccs1 | inconclusive: 12.6 µM [inhibitor, single point]
O=c1c2ccc([N+](=O)[O-])cc2ncn1CCOc1ccccc1 | inactive
CC(=O)N1N=C(c2ccccc2)CC1c1cn(C)c2ccccc12 (centres undefined) | inconclusive: 35.5 µM [inhibitor, single point]
CCC(CC)NC(=O)CO/N=C/c1ccccc1OC(F)F | inactive
Cc1cc(NC(=O)c2cc(-c3ccc(OC(C)C)cc3)nc3ccccc23)no1 | inactive
Cc1ccnn1CC(=O)N/N=C/c1ccc2c(c1)OCO2 | inconclusive: 0.259 µM [inhibitor, partial curve, poor fit]
CC(C)Cn1cnc2c(SCc3ccc(Cl)cc3)nc(N)nc21 | inconclusive: 35.5 µM [inhibitor, single point]
COc1ccc([N+](=O)[O-])cc1N(CC(O)CN(CC(C)C)CC(C)C)S(=O)(=O)c1ccc(C)cc1 (centres undefined) | inconclusive: 15.8 µM [inhibitor, partial curve, poor fit]
COc1ccccc1NC(=O)CC12CC3CC(CC(Br)(C3)C1)C2 | inactive
Cc1cc(=O)n(Cc2ccc(OC(C)C)cc2)c(=S)[nH]1 | inconclusive: 35.5 µM [inhibitor, single point]
CCOC(=O)C1=C[C@@]2(CC)CCCN3CCc4c(n1c1ccccc41)[C@H]32 | inconclusive: 14.6 µM [inhibitor, partial curve, poor fit]
O=C(Nc1nnc(-c2ccccc2SCc2ccccc2F)s1)Nc1ccccc1F | inconclusive: 6.31 µM [inhibitor, single point]
COc1ccc(OCC(O)CNCCNc2nccc(C(F)(F)F)n2)cc1 (centres undefined) | inactive
COC(=O)c1sc2ccccc2c1-n1cccc1C(=O)C(=O)Nc1ccc(Cl)cc1 | inconclusive: 35.5 µM [inhibitor, single point]
CCOC(=O)c1c(-c2ccc(C)o2)csc1NC(=O)CN(C)CC(=O)Nc1ccc(C)cc1 | inconclusive: 29.1 µM [inhibitor, single point]
Cc1ccnc(Nc2nc(-c3ccc(F)cc3)cs2)c1 | inconclusive: 35.5 µM [inhibitor, single point]
O=C(COC(=O)CNC(=O)c1ccc(Br)o1)Nc1ccccc1OC(F)F | inactive
COc1ccc(CNC(=O)CN2CCN(S(=O)(=O)c3cc(Br)ccc3Br)CC2)cc1OC | inactive
Cc1ccc(N2C(=O)C(CN(C)C)C2c2ccccc2)cc1 (centres undefined) | inconclusive: 20 µM [inhibitor, single point]

Individual results from the entries so far:
Potency, O=c1c2ccc([N+](=O)[O-])cc2ncn1CCOc1ccccc1 reads inactive
Potency, O=C(N/N=C/c1cccc(OC(=O)N2CCOCC2)c1)c1cccs1 reads inconclusive: 12.6 µM [inhibitor, single point]
